# Measured values taken from PubChem BioAssay AID1439 (NMMLSC, 2008).
# Amino acid sequences for entries named in this document (tags omitted).
# UniProt P09471, whole entry, looked up: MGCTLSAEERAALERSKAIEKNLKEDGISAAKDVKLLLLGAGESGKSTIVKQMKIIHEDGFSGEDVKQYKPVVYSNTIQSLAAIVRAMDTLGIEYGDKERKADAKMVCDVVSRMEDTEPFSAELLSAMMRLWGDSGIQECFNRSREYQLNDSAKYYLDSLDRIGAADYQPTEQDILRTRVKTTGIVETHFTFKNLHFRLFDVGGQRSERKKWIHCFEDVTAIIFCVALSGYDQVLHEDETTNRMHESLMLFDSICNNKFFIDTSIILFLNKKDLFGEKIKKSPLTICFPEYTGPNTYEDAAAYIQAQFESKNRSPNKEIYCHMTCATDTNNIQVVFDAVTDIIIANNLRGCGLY
# The whole screen tested about 220,000 compounds, of which about 770 (0.35%) were called active. This list was built around the results that the source calls inconclusive (neither active nor inactive); the mix of calls is not that of the screen. Cut-off read from the data, not from the text of the source: active = binding response below about 49% or above about 150%; inconclusive = no clear call, values can overlap the other calls; inactive = in between.
# Target: Guanine nucleotide-binding protein G(o) subunit alpha (Homo sapiens) (UniProt P09471)
# Assay: RGS7-Galphao binding modulators, primary screen, biochemical, multiplexed bead flow cytometry (AID 1439);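 note: fluorescent Galphao held in activated GDP-AlF4 state binding bead-coupled RGS7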
# Conditions: at 10 µM, actives lie on both sides
row,Compound,binding response (% of control)
1,Cc1onc(-c2c(Cl)cccc2Cl)c1NC(=O)N(C)N,inconclusive: 218%
2,CN(C)c1ccc(/C=N/NC(=O)c2nnn(-c3nonc3N)c2COc2ccc(F)cc2)cc1,inconclusive: 84.7%
3,Cn1c(N)c(C(=O)Nc2ccc(-c3ccccc3)cc2)sc1=S,inconclusive: 100%
4,O=C(CCN1CCC(c2cccs2)=N1)c1cccs1,inconclusive: 82.4%
5,c1ccc(Cn2c(CNc3nc4ccccc4n3CCN3CCOCC3)nc3ccccc32)cc1,inactive: 98.3%
6,COc1ccc(CN(Cc2cccn2C)S(=O)(=O)c2ccc(C)cc2)cc1,inconclusive: 91.5%
7,Cc1ccc(C(=O)Nc2ccc(C(=O)N3CCCCC3C)cc2)cc1 (centres undefined),inconclusive: 119%
8,O=C(O)Cc1ccc(C(=O)c2ccc(Cl)cc2Cl)s1,inconclusive: 107%
9,Cc1ccc(Cl)cc1NC(=O)Cn1cc2c(n1)CCCC2,inactive: 101%
10,CCN1/C(=C/c2ccc3cc(C)ccc3[n+]2CC)Sc2ccccc21,active: 225% [activator]
11,CC(C)Oc1ccccc1OCCCCn1cnc2ccccc2c1=O,inconclusive: 65%
12,COc1ccc(CNC(=S)N2CCN(Cc3ccccc3)CC2)cc1,inconclusive: 111%
13,Fc1cc(Cl)ccc1NC(=S)NCCN1CCOCC1,inconclusive: 95.5%
14,COc1ccc(/C=C/C(=O)NC(=S)N2CCN(c3ccccc3OC)CC2)cc1,inconclusive: 92.5%
15,CC(C)[C@@H]1CC[C@@H](C)C[C@H]1OC(=O)C[n+]1cc(-c2ccc(Cl)cc2)n2c1CCCCC2,inconclusive: 11.2%
16,O=C(CSc1ccccn1)N1CCN(c2ncc(C(F)(F)F)cc2Cl)CC1,inconclusive: -2.27%
17,CC(C)C(=O)Nc1ccc2nn(-c3ccccc3)nc2c1,inconclusive: 104%
18,CC(=O)/C(N=Nc1c(C)n(C)n(-c2ccccc2)c1=O)=C(\C)O,inconclusive: 204%
19,CCCCCC(=O)Nc1cccc(C2=NOC3(C2)C[C@@H](C(N)=O)N(C(=O)c2cc([N+](=O)[O-])cc([N+](=O)[O-])c2C)C3)c1 (some centres undefined),inconclusive: 100%
20,CCn1c2ccccc2c2cc(NC(=O)c3ccc(=O)oc3)ccc21,inconclusive: 83.9%
21,Cc1ccc(/C=C/C(=O)O)cc1S(=O)(=O)NCC1CCCO1 (centres undefined),inconclusive: 85.1%
22,CCCC(=O)Nc1ccccc1NC(=O)c1ccc(OCC)c(OCC)c1,inconclusive: 103%
23,CCOC(=O)C(=O)c1csc(NC(=O)CCSc2ccc(C)cc2)n1,inactive: 106%
24,COc1ccc(NC(=O)COc2ccc3c(c2)CCC3)cc1,inconclusive: 99.3%
